Results on one molecule are retold here after the supplement of paper PMC6411743.

The target of this test is T1, UniProt Q9UKW4 and related entries.
T1 sequence (whole entry): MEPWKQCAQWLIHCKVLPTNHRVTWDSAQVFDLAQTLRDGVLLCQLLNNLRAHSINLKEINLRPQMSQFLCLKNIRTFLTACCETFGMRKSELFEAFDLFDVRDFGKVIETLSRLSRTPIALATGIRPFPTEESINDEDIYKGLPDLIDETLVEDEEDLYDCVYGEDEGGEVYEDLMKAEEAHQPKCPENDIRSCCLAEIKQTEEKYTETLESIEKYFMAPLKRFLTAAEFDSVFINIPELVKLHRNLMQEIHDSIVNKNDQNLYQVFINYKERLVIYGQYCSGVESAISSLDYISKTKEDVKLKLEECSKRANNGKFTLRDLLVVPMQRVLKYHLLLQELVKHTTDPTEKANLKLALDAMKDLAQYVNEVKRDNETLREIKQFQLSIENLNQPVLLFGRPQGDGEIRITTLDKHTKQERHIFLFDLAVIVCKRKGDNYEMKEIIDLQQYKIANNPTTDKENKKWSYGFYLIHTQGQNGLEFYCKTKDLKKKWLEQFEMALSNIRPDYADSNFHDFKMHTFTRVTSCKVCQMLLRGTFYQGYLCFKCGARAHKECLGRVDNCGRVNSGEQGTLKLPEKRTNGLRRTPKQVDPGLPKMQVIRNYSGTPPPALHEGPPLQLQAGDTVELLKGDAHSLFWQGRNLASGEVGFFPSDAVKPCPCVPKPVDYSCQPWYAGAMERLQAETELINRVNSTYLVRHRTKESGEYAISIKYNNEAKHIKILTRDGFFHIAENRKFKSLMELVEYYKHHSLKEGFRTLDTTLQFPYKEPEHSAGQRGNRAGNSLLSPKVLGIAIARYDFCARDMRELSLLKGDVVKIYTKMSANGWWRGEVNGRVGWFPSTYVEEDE
The experiment in a line: NP40-soluble protein abundance relative to vehicle (solubility fold change) (ratio); higher = more soluble protein in presence of GTP. On the procedure:
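Solubility proteome profiling in Jurkat crude lysate. Lysate was treated with Mg-GTP (0.1-10 mM) for 10 min at room temperature and 3 min at 37 °C, then solubilised with 0.8% NP40 and benzonase, followed by ultracentrifugation. Proteins were quantified by TMT10 LC-MS/MS; the value is the NP40-soluble abundance relative to the NP40-processed vehicle, from 3 independent experiments.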

SMILES strings stand for the structures. ± gives the standard deviation of the averaged measurements. The list shows a part of the results.

`Nc1nc2c(ncn2[C@@H]2O[C@H](COP(=O)(O)OP(=O)(O)OP(=O)(O)O)[C@@H](O)[C@H]2O)c(=O)[nH]1` [guanosine triphosphate]: the NP40-soluble protein abundance (concentration: 0.1mM) turned out to be 1.04 ± 0.017; the NP40-soluble protein abundance (concentration: 0.5mM) amounted to 1.04 ± 0.053; the NP40-soluble protein abundance (concentration: 1mM) came to 0.916 ± 0.014; the NP40-soluble protein abundance (concentration: 2mM) is 0.928 ± 0.069; the NP40-soluble protein abundance (concentration: 4mM) amounted to 0.902 ± 0.053; the NP40-soluble protein abundance (concentration: 6mM) turned out to be 0.9 ± 0.041. Further, the NP40-soluble protein abundance is 0.869 ± 0.043 (concentration: 8mM) and 0.834 ± 0.084 (concentration: 10mM).
